From PubChem BioAssay AID2685 (National Center for Advancing Translational Sciences (NCATS), 2010)
This is one part of the list. These are further read-outs of the screen, such as a control signal, another cell line or another target. No call is given for them. Most of these compounds were active or inconclusive in the main read-out, so they are no random draw. Words in brackets tell the shape of the fitted curve; partial curves, single points and poor fits give uncertain potencies.

Experiment: qHTS Assay for Lipid Storage Modulators in Drosophila S3 Cells;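 on cell number change: cells counted by Cell Tracker Red CMTPX staining in the red channel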
Conditions: BODIPY lipid droplet fluorescence, 18-24 h; for cell number change: measured here: cell count max response, cells fed with added oleic acid
Method in brief: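 Drosophila S3 cells got compounds at several concentrations plus oleic acid (400 uM solution). Laser-scanning cytometry with 488 nm excitation read lipid droplets at 500-530 nm and cells at 575-640 nm. Percent activity was relative to 20 uM Triacsin C.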

[1] = measured here: lipid fluorescence (Fed channel) AC50, cells fed with added oleic acid
[2] = measured here: cell number channel AC50, cells fed with added oleic acid

| Compound | cell number change [%] | AC50 [1] | AC50 [2] |
| --- | --- | --- | --- |
| C=CCn1c(N)cc(=O)nc1SCC(=O)NC(C)c1ccccc1 (centres undefined) | 10.4 | 0.13 µM [falling, full curve, poor fit] |  |
| CCc1ccc(NC(=O)C(C)OC(=O)c2ccc(-n3cnnn3)cc2)cc1 (centres undefined) |  | 29.1 µM [falling, single point] | 0.58 µM [falling, single point] |
| CCC(C)NS(=O)(=O)c1ccc(OCC(=O)NCc2cccnc2)cc1 (centres undefined) | 28.5 | 0.082 µM [rising, full curve, poor fit] |  |
| Cc1cc(N=Cc2c(O)ccc3cc(Br)ccc23)no1 | -48.4 | 2.06 µM [falling, partial curve] | 2.06 µM [falling, partial curve] |
| O=C(NCCOc1ccc(Cl)cc1)c1ccco1 | 17.1 |  |  |
| Cc1ccc(C)c(Cn2nnc3c(=O)[nH]c(C4CCCN(C(=O)c5ccco5)C4)nc32)c1 (centres undefined) | -5.13 | 29.1 µM [rising, single point] |  |
| COC(=O)[C@@H](NC(=O)NC(C)CCc1ccccc1)C(C)C (some centres undefined) | 11.9 |  |  |
| CC(=O)Nc1ccc(S(=O)(=O)N2CCC(C(N)=O)(N3CCCCC3)CC2)cc1 | 11.3 |  |  |
| CC(/C=C/c1ccc2c(c1)OCO2)=N\NC(=O)COc1ccccc1C |  | 0.0366 µM [rising, partial curve, poor fit] | 0.058 µM [rising, full curve, poor fit] |
| O=C(c1ccccc1)N1CCN(C2C3CC4CC(C3)CC2C4)CC1 (centres undefined) | 2.08 | 16.4 µM [falling, partial curve] | 0.461 µM [falling, single point] |
| CC(=O)Nc1ccc(S(=O)(=O)N2CCN(c3cccc(C)c3C)CC2)cc1 | 21.6 | 0.259 µM [rising, partial curve, poor fit] | 2.31 µM [rising, full curve, poor fit] |
| OC(CN1CCN(c2ccccn2)CC1)Cn1c2ccc(Cl)cc2c2cc(Cl)ccc21 (centres undefined) | -60.3 | 29.1 µM [falling, single point] | 23.1 µM [falling, single point] |
| Cc1cc2ncc(C(=O)Nc3ccsc3C(=O)O)c(C)n2n1 | 20.6 | 6.51 µM [falling, single point] | 6.51 µM [falling, single point] |
| CC1CCN(c2ccc3nnc(CCC(=O)N4CCN(c5ccccc5F)CC4)n3n2)CC1 | -21.5 | 29.1 µM [falling, single point] |  |
| CS(=O)(=O)c1ccc(Cl)c(NC(=O)COc2ccc3c(c2)CCC3)c1 |  | 0.58 µM [rising, single point] |  |
| COc1ccc(-c2noc(=O)n2Cc2ccc(C#N)cc2)cc1 | 8.42 |  |  |
| COc1ccc2oc(C(=O)OCC(=O)N(CC(C)C)c3c(N)n(Cc4ccccc4)c(=O)[nH]c3=O)c(C)c2c1 |  |  | 5.17 µM [rising, single point] |
| O=c1sc(N2CCN(c3ccccc3F)CC2)nc2ccsc12 |  | 0.651 µM [rising, full curve] | 0.517 µM [rising, full curve, poor fit] |
| CC(C)c1ccc(OCC(=O)Nc2ccccc2C(=O)N2CCOCC2)cc1 | 10.7 |  |  |
| CN(c1ccccc1)S(=O)(=O)c1ccc(NC(=O)c2cccs2)cc1 |  | 35.5 µM [rising, single point] |  |

Retrieved by structure from the list above (two):

| Compound | cell number change [%] | AC50 [1] | AC50 [2] |
| --- | --- | --- | --- |
| Cc1cc(N=Cc2c(O)ccc3cc(Br)ccc23)no1 | -48.4 | 2.06 µM [falling, partial curve] | 2.06 µM [falling, partial curve] |
| O=C(NCCOc1ccc(Cl)cc1)c1ccco1 | 17.1 |  |  |

Continued.

| Compound | cell number change [%] | AC50 [1] | AC50 [2] |
| --- | --- | --- | --- |
| O=C(CNC1CCCC1)Nc1cc(Cl)ccc1[N+](=O)[O-] | -0.816 | 0.82 µM [falling, full curve] |  |
| CC1CCCCC1NC(=O)COC(=O)c1ccc2c(c1Cl)C(=O)c1ccccc1C2=O (centres undefined) | -3.42 | 0.13 µM [rising, full curve] |  |
| Cc1cc(NCc2ccccc2)c2ccccc2n1 | -18.1 | 29.1 µM [rising, single point] |  |
| COc1ccccc1C(=O)Nc1cccc(C(=O)c2ccccc2)c1 | -36.5 |  | 11.6 µM [falling, single point] |
| CCOc1ccc(S(=O)(=O)Nc2cccc(C(=O)NCC3(N4CCCCC4)CCCCC3)c2)cc1 | 35 |  | 11.6 µM [rising, single point] |
| COc1ccc(C2NC(c3ccc(OC)cc3OC)C(C)C(=O)C2C)c(OC)c1 (centres undefined) | 51 |  | 10.3 µM [rising, partial curve, poor fit] |
| COC(=O)CN1C(=S)N(c2ccc(Cl)cc2)C(=O)C1CC(=O)Nc1ccc(Cl)cc1 (centres undefined) | -41.6 | 25.9 µM [falling, single point] | 29.1 µM [falling, single point] |
| O=C(NNC(=O)c1ccccc1F)c1ccc(-n2cncn2)c([N+](=O)[O-])c1 | 11.8 | 0.651 µM [falling, single point] |  |
| Cc1ccc(NC2CCCN(C(=O)c3cccc(-c4ncc[nH]4)c3)C2)cc1C (centres undefined) | -4.01 |  |  |
| C/C(=N\NC(N)=S)c1cc(-c2ccccc2)c(-c2ccccc2)s1 | -12.6 | 7.31 µM [falling, partial curve] |  |
| CCOC(=O)C1CCN(C(=O)Nc2ccc3oc(C)nc3c2)CC1 | 0.647 | 1.3 µM [falling, full curve] |  |
| CCC1CCc2sc(C(=O)NCC3CCCO3)cc2C1 (centres undefined) | -10.4 | 0.164 µM [falling, partial curve, poor fit] |  |
| CC(=O)N1CCN(c2ccc(NCc3ccc(F)cc3)cc2)CC1 |  | 0.184 µM [rising, full curve, poor fit] |  |
| CSc1cccc(NC(=S)N2CCCN(Cc3ccc(F)cc3)C2)c1 | 35 |  | 0.326 µM [rising, partial curve, poor fit] |
| O=C(Cn1nc(C(=O)O)c2ccccc2c1=O)Nc1ccc(F)cc1F | -29.5 | 29.1 µM [falling, single point] |  |
| COc1ccc(/C=N/Nc2ncnc3sc(C)c(C)c23)cc1 | 11.5 | 10.3 µM [rising, partial curve] |  |
| CCCc1nnc(SCC(=O)Nc2ccc(OCC)cc2)n1N | 2.29 | 4.11 µM [rising, single point] |  |
| Cc1ccc(/C=C(\C#N)C(=O)Nc2c(C)cccc2C)s1 | 75.4 | 0.0731 µM [rising, full curve, poor fit] | 0.146 µM [rising, full curve, poor fit] |
| COc1ccccc1NS(=O)(=O)c1ccc(C(=O)NCc2ccncc2)cc1 | -7.06 | 3.66 µM [falling, full curve] | 0.731 µM [falling, full curve, poor fit] |
| COc1ccc(CCNC(=O)CCCOc2ccc(Cl)cc2)cc1OC | -36 | 0.0146 µM [falling, full curve, poor fit] | 14.6 µM [falling, single point] |

Entries of single compounds from above:
OC(CN1CCN(c2ccccn2)CC1)Cn1c2ccc(Cl)cc2c2cc(Cl)ccc21 (centres undefined) as listed: cell number change [%]: -60.3; AC50 [1]: 29.1 µM [falling, single point]; AC50 [2]: 23.1 µM [falling, single point]
Cc1ccc(/C=C(\C#N)C(=O)Nc2c(C)cccc2C)s1 as listed: cell number change [%]: 75.4; AC50 [1]: 0.0731 µM [rising, full curve, poor fit]; AC50 [2]: 0.146 µM [rising, full curve, poor fit]

Remaining list, next part

| Compound | cell number change [%] | AC50 [1] | AC50 [2] |
| --- | --- | --- | --- |
| COc1cc(Cl)c(C)cc1NC(=O)CN1CCN(C(=O)C2CC2)CC1 | -24.1 | 2.31 µM [falling, full curve, poor fit] | 2.59 µM [falling, full curve, poor fit] |
| CCOc1ccc2cc(C#N)c(SCC(=O)N3CCOCC3)nc2c1 |  |  | 6.51 µM [rising, single point] |
| COCCn1c(=S)[nH]c2cc(C(=O)N3CCN(c4cccc(Cl)c4)CC3)ccc2c1=O | -4.78 | 29.1 µM [falling, single point] |  |
| c1ccc(-c2noc(CN3CCc4sccc4C3)n2)cc1 | 28.3 | 29.1 µM [rising, single point] |  |
| O=C(O)C1CC1c1ccc(Br)cc1 (centres undefined) |  | 6.51 µM [falling, single point] |  |
| CN(C(=O)CC1C(=O)NCCN1Cc1cccc(C(F)(F)F)c1)C1CCOCC1 (centres undefined) | -13.9 | 0.13 µM [falling, full curve, poor fit] | 6.51 µM [falling, single point] |
| O=C(NCc1ccccc1)NC(=O)c1ccccc1 | -7.5 | 3.26 µM [rising, full curve, poor fit] | 6.51 µM [falling, single point] |
| C=CCc1cccc(C2Nc3ccccc3C(=O)N2O)c1O (centres undefined) | -12.9 |  | 0.116 µM [falling, full curve, poor fit] |
| O=C(CCC(=O)Nc1ccccc1)NNS(=O)(=O)c1ccccc1[N+](=O)[O-] | 48.6 | 29.1 µM [rising, single point] | 32.6 µM [rising, single point] |
| Cc1ccc(O)c(-c2cc(C(=O)NCc3ccccc3)[nH]n2)c1 | 8.08 | 5.8 µM [rising, full curve] |  |
| O=C(c1ccoc1)N1CCC2(CC1)Oc1ccc(Cl)cc1C(=O)C21CC(c2ccc(Cl)cc2)=NO1 (centres undefined) | 12.8 | 14.6 µM [rising, single point] |  |
| COCCN(C(=O)COC(=O)CCCOc1ccccc1)c1c(N)n(Cc2ccccc2)c(=O)[nH]c1=O | 39.5 |  |  |
| COc1ccc(Cc2n[nH]c(=S)n2N)cc1OC | 13.4 |  |  |
| O=C(Oc1ccc2c(c1)CCC2)N1CCOCC1 | 1.87 | 23.1 µM [falling, single point] |  |
| COc1ccc(N(CC(=O)N2CCOCC2)S(C)(=O)=O)c(OC)c1 | -2.1 | 29.1 µM [rising, single point] |  |
| O=C(OCCCOc1ccc(F)cc1)c1ccc(O)cc1O | 5.28 |  |  |
| CC1CCN(C(=O)Cn2ncc3c4ccccc4n(C)c3c2=O)CC1 | 17.6 | 16.4 µM [rising, single point] |  |
| Cc1ccc(S(=O)(=O)/N=C2/C=C(C3C(=O)CC(C)(C)CC3=O)C(=O)c3ccccc32)cc1 | -86.7 | 4.61 µM [falling, single point] |  |
